In PubChem BioAssay AID2685 (National Center for Advancing Translational Sciences (NCATS), 2010):
The other results are listed elsewhere or left out. Further columns of the screen follow, without active or inactive calls. The list favours compounds with an active or inconclusive main result. Potencies come from curve fits of mixed quality, noted in brackets.

Assay: qHTS Assay for Lipid Storage Modulators in Drosophila S3 Cells;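 on cell number change: cells counted by Cell Tracker Red CMTPX staining in the red channel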
Settings: BODIPY lipid droplet fluorescence, 18-24 h; for cell number change: measured here: cell count max response, cells fed with added oleic acid
In short: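 Drosophila S3 cells got compounds at several concentrations plus oleic acid (400 uM solution). Laser-scanning cytometry with 488 nm excitation read lipid droplets at 500-530 nm and cells at 575-640 nm. Percent activity was relative to 20 uM Triacsin C.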

[1] = measured here: lipid fluorescence (Fed channel) AC50, cells fed with added oleic acid
[2] = measured here: cell number channel AC50, cells fed with added oleic acid

SMILES: O=C(NN1C(=O)c2ccccc2C1=O)c1ccc2c(c1)C(=O)N(CC1CCCO1)C2=O (configuration not stated)
- cell number change: -9.2%
- AC50 [1]: 6.51 µM [falling, single point]

SMILES: COc1ccc(-c2nc(N)n(S(=O)(=O)c3ccc(C)cc3)n2)cc1
- cell number change: 0.851%

SMILES: COc1ccc2cc(C(=O)Nc3ccc(F)cc3)sc(=O)c2c1OC
- AC50 [1]: 0.259 µM [falling, full curve]

SMILES: CC1CCC(CN2C(Nc3ccccc3)=NC[C@@H]2C)CC1 (some centres not stated)
- cell number change: 5.69%

SMILES: COc1cc(NC(=O)c2ccc(CNc3c(N4CCOCC4)c(=O)c3=O)cc2)cc(OC)c1
- cell number change: 7.65%
- AC50 [1]: 29.1 µM [falling, single point]

SMILES: CCN(CC(=O)Nc1ccc(NC(C)=O)cc1)C(=O)C1CCCN(C(=O)c2ccc(Cl)cc2)C1 (configuration not stated)
- cell number change: 10.4%
- AC50 [1]: 4.11 µM [falling, single point]

SMILES: CCOC(=O)c1cnc(-c2ccccc2)nc1Oc1ccc(Cl)cc1
- AC50 [1]: 0.651 µM [rising, single point]

SMILES: CCN(CC)c1ccc(/C=N/NC(=O)C(O)(c2ccccc2)c2ccccc2)o1
- AC50 [1]: 0.164 µM [falling, full curve, poor fit]

SMILES: O=C(c1ccccc1F)c1cc2c(cc1[N+](=O)[O-])OCCO2
- cell number change: -46%
- AC50 [2]: 32.6 µM [falling, single point]

SMILES: COc1ccc(CCCNC(=O)C2CCC(=O)N(CC3CCCCC3)C2)cc1 (configuration not stated)
- cell number change: 10.1%
- AC50 [1]: 0.0517 µM [rising, full curve, poor fit]

SMILES: COCCCn1c(SCC(=O)Nc2cccc(C)n2)nnc1-c1ccco1
- AC50 [2]: 7.31 µM [falling, single point]

SMILES: CCn1c(C)nc2cc(C(=O)N/N=C(\C)c3ccc(OC)cc3O)ccc21
- cell number change: -24.9%
- AC50 [1]: 1.46 µM [rising, full curve]

SMILES: O=C(O)CC1SC(=Nc2cccc(O)c2)NC1=O (configuration not stated)
- cell number change: -13.3%
- AC50 [1]: 3.66 µM [falling, single point]

SMILES: Cc1ccc(S(=O)(=O)NC(=O)Nc2cc(C)ccc2F)cc1
- cell number change: 1.59%

SMILES: COc1ccc(C)cc1S(=O)(=O)NCc1cccs1
- cell number change: -10%
- AC50 [1]: 0.082 µM [rising, single point]

SMILES: CCOC(=O)N/N=C1\CCS(=O)(=O)c2ccc(Cl)cc21
- cell number change: 19.7%
- AC50 [2]: 2.91 µM [falling, single point]
- AC50 [1]: 3.66 µM [falling, single point]

SMILES: CC1CN(CC(=O)NCc2ccc(F)cc2)CC(C)O1 (configuration not stated)
- cell number change: -5.71%
- AC50 [1]: 6.51 µM [falling, partial curve]

SMILES: Cc1ccc(-c2noc(=O)n2CC(=O)Nc2ccc(S(=O)(=O)NC3CC3)cc2)cc1
- cell number change: 1.5%

SMILES: CCCCCCCNC(=O)C1(CC2CC(c3ccc(Cl)cc3)=NO2)CCN(C(=O)C2CCCC2)CC1 (configuration not stated)
- cell number change: 33.7%

SMILES: COc1cc(NS(=O)(=O)c2ccc(NC(=O)CSC3=NCCS3)cc2)nc(OC)n1
- cell number change: -11.1%
- AC50 [1]: 0.13 µM [falling, full curve]

SMILES: Cc1ccc(S(=O)(=O)NCC2CCC(C(=O)N3CCN(C)CC3)CC2)cc1 (configuration not stated)
- cell number change: 0.76%
- AC50 [1]: 25.9 µM [rising, single point]

SMILES: COc1ccc(OC)c(S(=O)(=O)N2CCCC(C(=O)NCc3ccccn3)C2)c1 (configuration not stated)
- cell number change: -4.7%

SMILES: C=CCc1cccc2cc(C(=O)NC)c(=O)oc12
- cell number change: 9.47%
- AC50 [1]: 0.517 µM [rising, full curve, poor fit]

SMILES: COc1cccc(CCN2C(=O)C(=O)N([C@@H](CNCc3ccccc3)Cc3ccccc3F)C[C@@H]2C(C)(C)C)c1
- cell number change: -34.3%
- AC50 [2]: 0.731 µM [falling, full curve]
- AC50 [1]: 0.731 µM [falling, full curve]

SMILES: C[n+]1ccc(C(=O)NCc2ccccc2)cc1
- cell number change: 9.89%
- AC50 [1]: 20.6 µM [rising, single point]

SMILES: CN(C)c1ccc(C(=O)n2nnc3ccccc32)cc1
- cell number change: -37.8%
- AC50 [2]: 16.4 µM [falling, single point]
- AC50 [1]: 20.6 µM [falling, single point]

SMILES: CCCCCC(=O)NC(=S)Nc1ccc2oc(=O)ccc2c1
- cell number change: 17.5%
- AC50 [1]: 2.59 µM [falling, partial curve]

SMILES: C/C(CC(=O)Nc1ccc(F)cc1)=N\NC(=O)COc1ccccc1
- cell number change: 31.4%
- AC50 [2]: 13 µM [rising, single point]

SMILES: O=C1OC(c2ccccc2)=C/C1=C/c1cccs1
- cell number change: 32.2%
- AC50 [2]: 9.2 µM [rising, single point]
- AC50 [1]: 11.6 µM [rising, partial curve, poor fit]

SMILES: Cn1nc(-c2ccc(Cl)cc2)c2cc(C(=O)N3CCCC3)sc21
- cell number change: 14.2%
- AC50 [1]: 0.082 µM [rising, full curve]

SMILES: CCOC(=O)C1(CC2CC2)CCN(C(=O)c2cc(OC)nc3ccccc23)CC1
- cell number change: -18.9%
- AC50 [1]: 0.0231 µM [falling, full curve, poor fit]

SMILES: CC(C)OC(=O)CSc1nc(N)c(C#N)c(-c2cccs2)c1C#N
- cell number change: 1.09%
- AC50 [2]: 0.184 µM [rising, full curve, poor fit]
- AC50 [1]: 6.51 µM [rising, partial curve]

SMILES: CC(=O)N1c2ccc(S(=O)(=O)NCCC(=O)NCCc3cccc(C)c3)cc2CC1C (configuration not stated)
- cell number change: -4.42%
- AC50 [1]: 0.291 µM [rising, single point]

SMILES: COc1ccc(C2(CNC(=O)c3ccccc3)CCOCC2)cc1
- cell number change: -37.6%
- AC50 [2]: 9.2 µM [falling, partial curve]

SMILES: COc1ccc(C(=O)OCC(=O)c2ccc(S(=O)(=O)N3CCCCC3)cc2)c(OC)c1
- cell number change: 150%
- AC50 [2]: 6.51 µM [falling, single point]

SMILES: Cc1ccccc1CS(=O)(=O)c1nnc([C@H](CC(C)C)NC(=O)OC(C)(C)C)o1
- cell number change: -94.9%
- AC50 [2]: 16.4 µM [falling, partial curve, poor fit]
- AC50 [1]: 18.4 µM [falling, partial curve]

SMILES: CCCN(CC(=O)Nc1cc(C)on1)CC(=O)Nc1ccccc1C
- cell number change: 10.3%

SMILES: Cc1cccc(C(=O)NC(C(=O)Nc2cccc(S(=O)(=O)N3CCCC3)c2)C(C)C)c1 (configuration not stated)
- cell number change: 11.2%
- AC50 [2]: 0.58 µM [falling, partial curve, poor fit]
- AC50 [1]: 0.58 µM [falling, partial curve, poor fit]
